In PubChem BioAssay AID248 (DTP/NCI, 2004) one finds T/C and survivor count data, which are given here for six molecules.

This assay deals with L1210 leukemia ip in BDF1 mice, survival T/C. The assay can be described thus: NCI In Vivo Anticancer Drug Screen. Data for tumor model L1210 Leukemia (intraperitoneal) in B6D2F1 (BDF1) mice. Particulars: T/C endpoint: mean survival time, higher T/C = longer survival.

The list is a part of this screen's results and no random one: it is rich in T/C values a quarter to a half above the control, in often repeated tests (any T/C) and in doses without a T/C. Further doses and runs are listed elsewhere. T/C gives the treated animals as a percentage of the vehicle group. Some entries give survivors of the animals treated and no T/C: the source holds a T/C of zero for them, seemingly a mark for toxic or unscored doses. Some doses without a T/C left all or most animals alive at the check, yet need not have been tolerated: the source hardly ever lists a survival T/C far under the control, and the zero likely stands for such cases as well. Survivors were counted at the toxicity check, usually on the fifth day, unless a day is given; later deaths do not show. Schedules are NCI's codes, taken here to give the interval after Q, in days (D) or hours (H), and the number of doses after X. Some schedule codes hold Z or #, which are not explained here. For survival time, this PubChem deposit counts one and a half times the control or more as active, and values a quarter to a half above the control carry no call in these data; other NCI protocols may use other cut-offs. Some T/C values carry the count of animals alive at the toxicity check (mostly the fifth day); where none is given, no animal had died by that day.

For `[N-]=[N+]=CC(=O)CCC(N)C(=O)O` (configuration not stated), the T/C is 131 % of control (dose: 0.05 mg/kg/injection, schedule: Q01DX015 (ip), vehicle: water); 136 % of control (dose: 0.1 mg/kg/injection, schedule: Q01DX009 (ip), vehicle: saline); 132 % of control (dose: 0.1 mg/kg/injection, schedule: Q01DX009 (oral), vehicle: saline); 125 % of control (dose: 0.1 mg/kg/injection, schedule: Q01DX015 (ip), vehicle: water); 140 % of control (dose: 0.12 mg/kg/injection, schedule: Q01DX009 (oral), vehicle: saline); 127 % of control (dose: 0.16 mg/kg/injection, schedule: Q02DX008 (ip), vehicle: water). Also, the T/C runs as follows: (dose: 0.2 mg/kg/injection, schedule: Q02DX005 (oral), vehicle: saline) 140 % of control; (dose: 0.31 mg/kg/injection, schedule: Q02DX008 (ip), vehicle: water) 139 % of control; (dose: 0.31 mg/kg/injection, schedule: Q02DX008 (oral), vehicle: water) 143 % of control; (dose: 0.39 mg/kg/injection, schedule: Q03HX008 (ip), vehicle: saline) 131 % of control; (dose: 0.4 mg/kg/injection, schedule: Q01DX009 (oral), vehicle: saline) 136 % of control; (dose: 0.5 mg/kg/injection, schedule: Q01DX009 (oral), vehicle: saline) 132 % of control. The T/C runs as follows: (dose: 0.62 mg/kg/injection, schedule: Q02DX008 (ip), vehicle: other) 138 % of control; (dose: 0.63 mg/kg/injection, schedule: Q02DX008 (oral), vehicle: water) 147 % of control; (dose: 0.78 mg/kg/injection, schedule: Q03HX008 (ip), vehicle: saline) 130 % of control; (dose: 1.25 mg/kg/injection, schedule: Q02DX008 (ip), vehicle: other) 142 % of control; (dose: 1.56 mg/kg/injection, schedule: Q03HX008 (ip), vehicle: saline) 138 % of control [9 of 10 alive]; (dose: 1.56 mg/kg/injection, schedule: Q04DX003 (ip), vehicle: saline) 142 % of control. The T/C runs as follows: (dose: 3.12 mg/kg/injection, schedule: Q03HX008 (ip), vehicle: saline) 130 % of control; (dose: 3.12 mg/kg/injection, schedule: Q03HX016 (ip), vehicle: saline) 146 % of control; (dose: 3.12 mg/kg/injection, schedule: Q08DX002 (ip), vehicle: saline) 140 % of control; (dose: 6.25 mg/kg/injection, schedule: Q08DX002 (ip), vehicle: saline) 142 % of control; (dose: 10.0 mg/kg/injection, schedule: Q02DX008 (ip), vehicle: other) 147 % of control [5 of 6 alive]; (dose: 50.0 mg/kg/injection, schedule: Q01DX001 (ip), vehicle: saline) 149 % of control. Also, the T/C is, setting by setting: (dose: 50.0 mg/kg/injection, schedule: Q01DX001 (ip), vehicle: water) 139 % of control; (dose: 50.0 mg/kg/injection, schedule: Q## X003 (ip), vehicle: saline) 134 % of control [9 of 10 alive]; (dose: 100.0 mg/kg/injection, schedule: Q01DX001 (ip), vehicle: water) 142 % of control; (dose: 100.0 mg/kg/injection, schedule: Q01DX001 (oral), vehicle: saline) 147 % of control; (dose: 150.0 mg/kg/injection, schedule: Q01DX001 (ip), vehicle: water) 144 % of control; (dose: 200.0 mg/kg/injection, schedule: Q01DX001 (oral), vehicle: saline) 131 % of control [8 of 10 alive]. In addition, the T/C is, setting by setting: (dose: 100.0 micrograms/kg/injection, schedule: Q01DX010 (ip), vehicle: saline) 138 % of control; (dose: 200.0 micrograms/kg/injection, schedule: Q01DX010 (ip), vehicle: saline) 140 % of control. The survivor count runs as follows: (dose: 0.4 mg/kg/injection, schedule: Q01DX015 (ip), vehicle: other) 6 of 6; (dose: 0.6 mg/kg/injection, schedule: Q01DX015 (ip), vehicle: other) 6 of 6; (dose: 0.8 mg/kg/injection, schedule: Q01DX009 (oral), vehicle: saline) 10 of 10; (dose: 0.8 mg/kg/injection, schedule: Q01DX015 (ip), vehicle: other) 6 of 6; (dose: 25.0 mg/kg/injection, schedule: Q## X024 (ip), vehicle: saline) 3 of 10; (dose: 50.0 mg/kg/injection, schedule: Q## X008 (ip), vehicle: saline) 6 of 10. The survivor count is 0 of 10 (dose: 50.0 mg/kg/injection, schedule: Q## X024 (ip), vehicle: saline); 3 of 10 (dose: 100.0 mg/kg/injection, schedule: Q## X008 (ip), vehicle: saline); 0 of 10 (dose: 100.0 mg/kg/injection, schedule: Q## X016 (ip), vehicle: saline); 5 of 10 (dose: 100.0 mg/kg/injection, schedule: Q## X024 (ip), vehicle: saline); 0 of 10 (dose: 200.0 mg/kg/injection, schedule: Q## X003 (ip), vehicle: saline); 3 of 10 (dose: 200.0 mg/kg/injection, schedule: Q## X008 (ip), vehicle: saline). Further, the survivor count runs as follows: (dose: 200.0 mg/kg/injection, schedule: Q## X016 (ip), vehicle: saline) 3 of 10; (dose: 200.0 mg/kg/injection, schedule: Q## X024 (ip), vehicle: saline) 2 of 10; (dose: 250.0 mg/kg/injection, schedule: Q01DX001 (ip), vehicle: water) 3 of 4; (dose: 300.0 mg/kg/injection, schedule: Q01DX001 (ip), vehicle: water) 4 of 4; (dose: 400.0 mg/kg/injection, schedule: Q01DX001 (ip), vehicle: saline) 8 of 10; (dose: 400.0 mg/kg/injection, schedule: Q01DX001 (oral), vehicle: saline) 8 of 10. Moreover, the survivor count is listed as 2 of 10 (dose: 400.0 mg/kg/injection, schedule: Q## X008 (ip), vehicle: saline); 2 of 10 (dose: 400.0 mg/kg/injection, schedule: Q## X016 (ip), vehicle: saline); 1 of 10 (dose: 800.0 mg/kg/injection, schedule: Q01DX001 (oral), vehicle: saline).
Turning to `COc1ccccc1N=Nc1c(O)n(-c2ccccc2C)c(=S)n(-c2ccccc2OC)c1=O`, the survivor count (dose: 400.0 mg/kg/injection, schedule: Q01DX001 (ip), vehicle: Klucel (hydroxypropylcellulose) (HPC)) is 1 of 6.
As for `Cc1nc(CON)cs1`, the survivor count (dose: 100.0 mg/kg/injection, schedule: Q01DX009 (ip), vehicle: saline) is reported as 5 of 6 and the survivor count (dose: 400.0 mg/kg/injection, schedule: Q04DX003 (ip), vehicle: saline) is recorded as 6 of 6.
For the molecule `Cc1cc2c(C)c3cc(C)c(C)c(C)c3cc2c(C)c1C`, the survivor count is reported as 1 of 6 (dose: 50.0 mg/kg/injection, schedule: Q01DX005 (ip), vehicle: water) and 3 of 6 (dose: 200.0 mg/kg/injection, schedule: Q01DX005 (ip), vehicle: water).
As for `Clc1c(CBr)c(Cl)c(CBr)c(Cl)c1CBr`, the survivor count is on record as 3 of 6 (dose: 100.0 mg/kg/injection, schedule: Q01DX009 (ip), vehicle: Klucel (hydroxypropylcellulose) (HPC)); 2 of 6 (dose: 200.0 mg/kg/injection, schedule: Q04DX003 (ip), vehicle: Klucel (hydroxypropylcellulose) (HPC)); 0 of 6 (dose: 400.0 mg/kg/injection, schedule: Q04DX003 (ip), vehicle: Klucel (hydroxypropylcellulose) (HPC)).
In the case of `c1ccc2cc(SCCCN3CCOCC3)ccc2c1`, the survivor count (dose: 400.0 mg/kg/injection, schedule: Q01DX009 (ip), vehicle: saline sonified) is on record as 1 of 6.
